Assay results taken from publication PMC5309696.
No constants are given. Whether binding was seen depends on the method and setting. In cells and extracts the contact can be indirect. Some results given as binding are weak or reduced against the parent protein; the word gives no strength.

Protein sequences, listed by entry. Tags and fused reporters are not part of them.
UniProt O08586: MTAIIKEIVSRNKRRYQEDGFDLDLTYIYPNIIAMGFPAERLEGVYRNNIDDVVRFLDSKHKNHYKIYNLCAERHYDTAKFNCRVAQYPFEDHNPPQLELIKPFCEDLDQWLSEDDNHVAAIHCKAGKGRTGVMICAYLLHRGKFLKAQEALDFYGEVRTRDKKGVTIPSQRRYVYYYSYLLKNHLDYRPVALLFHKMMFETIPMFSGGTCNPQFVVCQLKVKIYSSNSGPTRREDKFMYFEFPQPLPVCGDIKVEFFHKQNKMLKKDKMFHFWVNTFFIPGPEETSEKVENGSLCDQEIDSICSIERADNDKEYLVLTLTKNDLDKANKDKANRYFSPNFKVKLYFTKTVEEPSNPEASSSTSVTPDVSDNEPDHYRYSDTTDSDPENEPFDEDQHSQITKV

Experiments:
[1] = target: T1, DJ-1 (endogenous, brown adipose tissue) (mouse (endogenous in BAT)) (UniProt Q99LX0); test: co-IP; lysates of BAT immunoprecipitated with DJ-1 antibody, immunoblotted with PTEN or Mib2 antibody; IP buffer 50 mM Hepes pH 7.9, 150 mM NaCl, 1% Triton-100, 4 °C
T1 sequence: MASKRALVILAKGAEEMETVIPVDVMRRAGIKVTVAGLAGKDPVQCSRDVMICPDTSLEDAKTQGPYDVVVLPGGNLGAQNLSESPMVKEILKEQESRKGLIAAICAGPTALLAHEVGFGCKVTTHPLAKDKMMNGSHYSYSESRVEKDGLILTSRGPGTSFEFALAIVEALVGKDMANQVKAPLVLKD

[2] = target: PTEN (endogenous) (mouse (endogenous in BAT and brown adipocytes)) (UniProt O08586); test: co-IP; endogenous co-IP of Mib2 and PTEN in wild-type or DJ-1 KO brown adipocytes

- binding [1]: binds
- binding [2]: binds
B1: mind bomb-2 (Mib2) (endogenous) (protein, UniProt Q8R516 1-973)
chain: MDLDPHAGVQVGMRVVRGMDWKWGQQDGGEGGVGTVVELGRHGSPSTPDRTVVVQWDQGTRTNYRAGYQGAHDLLLYDNAQIGIRHPNIICDCCKKHGLRGMRWKCRVCFDYDLCTQCYMHNKHDLTHAFERYETSHSRPVTLSPRQGLPRIPLRGIFQGAKVVRGPDWEWGSQDGGEGKTGRVVDIRGWDVETGRSVASVTWADGTTNVYRVGHKGKVDLRCVGEAAGGFYYKEHLPKLGKPAELQRRVSADGQPFQRGDKVKCLLDTDVLRDMQEGHGGWNPRMAEFIGQMGTVHRITDRGDVRVQFNHETRWTFHPGALTKHNSFWVGDVVRVIGDLDTVKRLQAGHGEWTDDMAPALGRVGKVVKVFGDGNLRVAVGGQRWTFSPSCLVAYRPEEDANLDVAERARENKSAASVSVAGSLSVALDKLRTQKSDPEHPGRLVVEAALGNVARALDLLRRHPEQASYHPALVVDTKNQGRTALQVAAYLGQVELVRLLLQARASMDLPDDEGNTVLHYTAMGNQPEATRVLLSAGCAVDARNGTRSTALHVAVQRGFLEVVKILCERGCDVNLPDAHADTPLHSAISAGAGASSIVEVLTEVPGIDVTATNSQGFTLLHHASLKGHVLAVRKILARARQLVDAKKEDGFTALHLAALNNHREVAQVLIREGRCDVNVRNRKLQSPLHLAVQQAHLGLVPLLVDAGCSVNTEDEEGDTALHVALQRHQLLPLVADRAGGDPGPLQLLSRLQASGLPGCTELTVGAAVACFLALEGADVSYANHRGRSPLDLATEGRVLKALQGCAQRFRERQAGGGGGVPPGPRHVLSTPNTVTNLHVSGTAGPEAAECLVCSELALLILFSPCQHRTVCEECARRMKKCIRCQVVISKKLRPDGSEVVNAIQVPGPPRQLVEELQSRYRQMEERITCPICIDSHIRLVFQCGHGACAPCGAALNACPICRQPIRDRIQIFV
